In paper PMC9833666 (Science Advances, 2023):
Plain letter strings leave the end groups untold.

Test: peptide made by a vendor
Conditions: whole synthesis, one disulfide bridge, sequence written open

| Sequence | outcome |
| --- | --- |
| CLTIRLDDRRSRVKVSVEVC | One SyRC peptide and three SyRA peptides could not be synthesized |
| CRIKVDIDNGSGRLRLEVEC | One SyRC peptide and three SyRA peptides could not be synthesized |
| CVTIRVDNGRGGVKVTVEVC | One SyRC peptide and three SyRA peptides could not be synthesized |
| CVTVRLDNGRSGVRISVQVC | * was not synthesized |

Same assay, conditions: whole synthesis, reversed-phase high-performance LC and MS quality control, one disulfide bridge, sequence written open

| Sequence | purity (crude or final not stated) [%] |
| --- | --- |
| CLRIRLNDRRRGLRVSLQVC | 70.2 |
| CLRIRLNNGRRGLRVSVQVC | 70.3 |
| CLRIRLNNRGRGVKVSVEVC | 96.6 |
| CLRIRLNNRRRGLKVSLQVC | 83.5 |
| CLRIRLNNRRRGLRISLQVC | 75.7 |
| CLRIRLNNRRSRVRISVEVC | 77 |
| CLRIRVDNRGSGVKVTLEVC | 98.2 |
| CLRIRVNNGGSRVRISLEVC | 79.7 |
| CLRIRVNNRGSGLRISVEVC | 91 |
| CLRIRVNNRRGGVRITVQVC | 78.8 |
| CLRVRLDDRRGRLRISLQVC | 77.5 |
| CLRVRLNNGGRRVKVSVQVC | 73.3 |
| CLRVRLNNGRRRLKVSLQVC | 85.4 |
| CLRVRLNNRRGRLRVSLQVC | 71.9 |
| CLRVRLNNRRGRVKVSLQVC | 75.5 |
| CLRVRLNNRRRGLKISLQVC | 75.1 |
| CLRVRLNNRRRGLKVSVQVC | 87.8 |
| CLRVRLNNRRRGLRISLQVC | 81.6 |
| CLRVRLNNRRRGVKVSVQVC | 80.7 |
| CLRVRVDNGGSRLKITLEVC | 77.5 |
| CLRVRVNDRGSGVKITVEVC | 70.3 |
| CLRVRVNNRRSGVRVTLEVC | 80.7 |
| CLTIRLDNGGRGVRISLQVC | 70.3 |
| CLTIRVDNRGSRVRITLEVC | 72 |

| Sequence | purity (crude or final not stated) [%] |
| --- | --- |
| CLTIRVDNRRSRVKITLEVC | 74.2 |
| CLTIRVNNRRGRVRISVQVC | 82.3 |
| CLTVRLDNRGRGLKISVEVC | 75.8 |
| CLTVRLDNRGSGLRITVEVC | 88 |
| CLTVRLNNRGGGVKISVEVC | 71.8 |
| CLTVRLNNRRRGVKVSVQVC | 75.9 |
| CLTVRVDNRGSRLKVTVEVC | 79.8 |
| CLTVRVNNRGSGVKVSLEVC | 89.8 |
| CLTVRVNNRRSGVRVSVQVC | 92.8 |
| CRIKIDVDNRRRTLKLQLEC | 77.1 |
| CRIKINVNDGSRRLKLQVQC | 77.5 |
| CRIKVDIDDRRGRVRLQLEC | 83.6 |
| CRIKVDINNRSGRVKLQVQC | 98.6 |
| CRIKVDVNNRRRRVRLQVQC | 74.2 |
| CRIKVNIDDRSRRLRLELEC | 75.5 |
| CRIKVNINNGRRRVKLQLQC | 87.1 |
| CRIKVNINNRRRTVKLELEC | 78.4 |
| CRIKVNVNNRGRRLRLEVQC | 70.6 |
| CRIRIDIDDRSRTLKLQLQC | 97.9 |
| CRIRIDIDNRGRTVRLEVQC | 80.7 |
| CRIRIDVNNGSGRLKLQLEC | 83.9 |
| CRIRIDVNNRSGTLKLQVQC | 79.9 |
| CRIRINIDNRSGTVRLEVQC | 70.2 |
| CRIRININNRRGRLKLQVEC | 93.3 |

| Sequence | purity (crude or final not stated) [%] |
| --- | --- |
| CRIRINVDNGGGTVRLQVEC | 70.6 |
| CRIRINVNDRGGTVRLEVEC | 74.6 |
| CRIRINVNNGSGRVRLELEC | 76.5 |
| CRIRINVNNRGRTLKLEVQC | 70.5 |
| CRIRVNINNRRRTLRLEVEC | 74.6 |
| CRIRVNVNDGSGRVRLQVQC | 76.3 |
| CRVKINIDNGSRRVRLEVEC | 70.7 |
| CRVKINIDNRSRRVKLQVQC | 74.4 |
| CRVKINVDNRSGRVKLELQC | 78.6 |
| CRVKINVNNRGRTLKLELEC | 70.1 |
| CRVKVNINNGSRRLRLQVQC | 78.9 |
| CRVKVNVDDRGRRLKLELQC | 70.1 |
| CRVRIDIDNRSRTLKLEVQC | 82.5 |
| CRVRIDINNGRRRLKLQLQC | 74.3 |
| CRVRINIDNRSGRVKLEVQC | 86.5 |
| CRVRININNGGRRVKLEVQC | 82.6 |
| CRVRININNGRRRVKLQLQC | 88.4 |
| CRVRININNRSRTLKLELEC | 80.5 |
| CRVRINVDDRRGRLKLQVEC | 86.5 |
| CRVRINVDNRGGTLKLQVQC | 82.7 |
| CRVRINVNDGSGTVRLQVQC | 92.8 |
| CRVRINVNNRSGRLKLQVEC | 87.3 |
| CRVRVNIDNRSRTLRLQLQC | 76.3 |
| CRVRVNINNGSGRVKLELEC | 97.6 |

| Sequence | purity (crude or final not stated) [%] |
| --- | --- |
| CRVRVNINNRGGTVKLQLQC | 75.2 |
| CVRIRLNNGGRRVKVTLQVC | 88.8 |
| CVRIRLNNGGSGVKVTVEVC | 78.2 |
| CVRIRLNNRRRGLKISLQVC | 83 |
| CVRIRLNNRRRGLKVSLQVC | 96 |
| CVRIRLNNRRRRVKVSLEVC | 89.8 |
| CVRIRLNNRRRRVKVTLQVC | 75.1 |
| CVRIRLNNRRRRVRVSVQVC | 80.7 |
| CVRIRVNNRRRRVKVSVQVC | 85.8 |
| CVRIRVNNRRSGVKVSLQVC | 70.5 |
| CVRVRLDNRGGGLRISLEVC | 84.8 |
| CVRVRLDNRRSGLRISLQVC | 88.2 |
| CVRVRLNDGGSGVRISVQVC | 95.6 |
| CVRVRLNNGRRRLKVSLQVC | 81.3 |
| CVRVRLNNGRRRVKVSLQVC | 96.7 |
| CVRVRLNNRGGGLRITLQVC | 93 |
| CVRVRLNNRRRGLKISLQVC | 81.5 |
| CVRVRLNNRRRGLKITLQVC | 97.7 |
| CVRVRLNNRRRGLKVTLQVC | 98.6 |
| CVRVRLNNRRRGLRVSLQVC | 96.6 |
| CVRVRLNNRRRGVKISLQVC | 70.4 |
| CVRVRLNNRRRRLKISLEVC | 76.9 |
| CVRVRLNNRRRRLKVSLEVC | 97 |
| CVRVRLNNRRRRVKISVEVC | 71 |

| Sequence | purity (crude or final not stated) [%] |
| --- | --- |
| CVRVRLNNRRRRVRVSVQVC | 85.5 |
| CVRVRVDDRRGGLKISLQVC | 81.8 |
| CVRVRVDNRGSRVKVTVQVC | 81.6 |
| CVRVRVNNGRRRLKVSLQVC | 84 |
| CVRVRVNNRGGGVRITLQVC | 76.6 |
| CVRVRVNNRGGRLKISVQVC | 83.4 |
| CVTIRLDDRRRGLRVTVQVC | 71.6 |
| CVTIRLNDGGSGLKISLQVC | 92.9 |
| CVTIRLNDRRRGVKISVEVC | 96.9 |
| CVTIRVDNRGSRLKISVQVC | 71.2 |
| CVTIRVDNRGSRVRVTLEVC | 83.8 |
| CVTIRVNNRRSRVRISLQVC | 74.4 |
| CVTVRLNDRRSRLRITLEVC | 85.6 |
| CVTVRLNNRRRGLRVSLQVC | 75.4 |
| CVTVRVNNRGGRLKITLQVC | 78.2 |
| CVTVRVNNRGGRLKVSVEVC | 99.2 |
| CVTVRVNNRGRGLRISLQVC | 83.5 |
| CVTVRVNNRGSRLKVSVEVC | 74 |
| CVTVRVNNRRRRVRISVQVC | 78.2 |
| GSKKPVPIIYCNRRTGKCQRM | 82.5 |

Same assay, conditions: whole synthesis, reversed-phase high-performance LC and MS quality control, several disulfide bridges, sequence written open

| Sequence | purity (crude or final not stated) [%] |
| --- | --- |
| RGGRLCYCRRRFCVCVGR | 79.9 |
